Measurements published in PubChem BioAssay AID264 (DTP/NCI, 2004).
The list shows only some results of the screen, not a fair sample: it is rich in T/C values a quarter to a half above the control, in often repeated tests (any T/C) and in doses without a T/C. Further doses and runs are listed elsewhere. T/C gives the treated animals as a percentage of the vehicle group. Schedules are NCI's codes, read here as Q, the interval in days (D) or hours (H), X, the number of doses. Some T/C values carry the count of animals alive at the toxicity check (mostly the fifth day); without a count, all were alive then. Some values lie below zero, which means that the treated tumours became smaller. Some entries hold several experiments; their values stand side by side, smallest first. Some doses have a count of surviving animals in place of a T/C: the source holds a T/C of zero for them, seemingly a mark for toxic or unscored doses. Survivors were counted at the toxicity check, usually on the fifth day, unless a day is given; later deaths do not show. Numbered stars: 1 amine (or outer) side, 2 acyl side, 3 side chain; on linkers, the order of the positions; unused ones are H or OH. Square brackets hold non-standard residues; d marks the D form. Peptide text beside a SMILES is read from it. * marks the point of attachment. X2 = CCC(=O)CC1CC(C)CC(C(=O)[*:2])N1[*:1]; X1 = CCCCCCCCC(C)C(=O)*; Aib = CC(C)(N)C(=O)O; X3 = CC(CN(C)CCO)N*

Tested on: nude mice, LX-1 lung xenograft intrarenal, tumor weight T/C
Test: NCI In Vivo Anticancer Drug Screen. Data for tumor model Human Lung LX-1 Xenograft (intrarenal inoculation) in NU/NU Swiss (nude) mice
Conditions: T/C endpoint: mean tumor weight change, higher T/C = larger tumour; for T/C: evaluated on day 11
How it was run: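 Tumor-bearing mice receive test compound or vehicle; tumor size is then measured in each group. The treated value is divided by the vehicle value to give T/C.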

[1] = dose: 50.0 mg/kg/injection, schedule: Q01DX010 (sc), vehicle: saline with Tween-80
[2] = dose: 100.0 mg/kg/injection, schedule: Q01DX010 (sc), vehicle: saline with Tween-80
[3] = dose: 200.0 mg/kg/injection, schedule: Q01DX010 (sc), vehicle: saline with Tween-80
[4] = dose: 800.0 mg/kg/injection, schedule: Q01DX010 (sc), vehicle: saline
[5] = dose: 20.0 mg/kg/injection, schedule: Q04DX003 (sc), vehicle: saline
[6] = dose: 600.0 mg/kg/injection, schedule: Q04DX003 (sc), vehicle: saline
[7] = dose: 100.0 mg/kg/injection, schedule: Q04DX003 (sc), vehicle: saline with Tween-80
[8] = dose: 400.0 mg/kg/injection, schedule: Q01DX010 (sc), vehicle: saline with Tween-80

Structure (SMILES): CS(=O)(=O)OCCCCOS(C)(=O)=O
- survivor count [1]: 0 of 3 on day 11
- survivor count [2]: 0 of 3 on day 11
- survivor count [3]: 0 of 3 on day 11

Structure (SMILES): CCC(=O)N(C)[C@@H](C)C(=O)O[C@H]1CC(=O)N(C)c2cc(cc(OC)c2Cl)C/C(C)=C/C=C[C@@H](OC)[C@@]2(O)C[C@H](OC(=O)N2)[C@@H](C)[C@@H]2O[C@@]12C
- survivor count (dose: 0.5 mg/kg/injection, schedule: Q01DX010 (sc), vehicle: saline + alcohol): 0 of 3 on day 11
- survivor count (dose: 1.0 mg/kg/injection, schedule: Q01DX010 (sc), vehicle: saline + alcohol): 0 of 3 on day 11

Structure (SMILES): C=CCOCC1CO1 (stereo not given)
- survivor count [4]: 0 of 3 on day 11

Structure (SMILES): O=NN(CCCl)C(=O)NC1[C@H](O)CCC[C@@H]1O (stereo not given in full)
- T/C (dose: 10.0 mg/kg/injection, schedule: Q04DX003 (sc), vehicle: saline): -40, 2, 5, 12 % of control [5 of 6 alive on day 11]
- T/C [5]: -88, -85 [4 of 6 alive on day 11], -38 % of control
- survivor count [5]: 1 of 4 on day 11
- survivor count (dose: 40.0 mg/kg/injection, schedule: Q04DX003 (sc), vehicle: saline): 0 of 6 on day 11
- survivor count (dose: 80.0 mg/kg/injection, schedule: Q04DX003 (sc), vehicle: saline): 0 of 6 on day 11

Structure (SMILES): CC1(C)N=C(N)N=C(N)N1c1ccc(F)c(C(F)(F)F)c1
- survivor count (dose: 12.5 mg/kg/injection, schedule: Q01DX010 (sc), vehicle: saline): 1 of 3 on day 11
- survivor count (dose: 25.0 mg/kg/injection, schedule: Q01DX010 (sc), vehicle: saline): 1 of 3 on day 11
- survivor count (dose: 50.0 mg/kg/injection, schedule: Q01DX010 (sc), vehicle: saline): 0 of 3 on day 11
- survivor count (dose: 100.0 mg/kg/injection, schedule: Q01DX010 (sc), vehicle: saline): 0 of 3 on day 11

Structure (SMILES): Cc1ccc(S(=O)(=O)N/N=C/C(Br)=C(/Br)C(=O)O)cc1
- survivor count (dose: 1200.0 mg/kg/injection, schedule: Q04DX003 (sc), vehicle: Klucel (hydroxypropylcellulose) (HPC)): 0 of 6 on day 11

Structure (SMILES): O=C(O)/C=C/C(=O)Nc1ccc(Cl)c(Cl)c1
- survivor count (dose: 400.0 mg/kg/injection, schedule: Q04DX003 (sc), vehicle: Klucel (hydroxypropylcellulose) (HPC)): 3 of 6 on day 11
- survivor count (dose: 800.0 mg/kg/injection, schedule: Q04DX003 (sc), vehicle: Klucel (hydroxypropylcellulose) (HPC)): 2 of 6 on day 11

Structure (SMILES): CCOC(=O)Nc1cc2c(c(N)n1)N=C(CN(C)c1ccccc1)CN2
- survivor count (dose: 50.0 mg/kg/injection, schedule: Q01DX010 (sc), vehicle: Klucel (hydroxypropylcellulose) (HPC)): 1 of 3 on day 11

Structure (SMILES): CC1C=NNC1=O (stereo not given)
- survivor count (dose: 800.0 mg/kg/injection, schedule: Q01DX010 (sc), vehicle: saline with Tween-80): 1 of 3 on day 11

Structure (SMILES): CCC1CN2C(=N1)c1ccccc1-c1cc(Cl)ccc12 (stereo not given)
- survivor count [2]: 1 of 3 on day 11

Structure (SMILES): C(COCCOCC1CO1)OCCOCC1CO1 (stereo not given)
- survivor count [4]: 0 of 3 on day 11

Structure (SMILES): Cc1cc(NS(=O)(=O)c2ccc(N=Nc3cc(N=Nc4ccc(S(=O)(=O)Nc5cc(C)nc(C)n5)cc4)c4c(NC(=O)C(Cl)Cl)cccc4c3OC(=O)C(Cl)Cl)cc2)nc(C)n1 (tested in a mixture with another compound)
- T/C (dose: 300.0 mg/kg/injection, schedule: Q04DX003 (sc), vehicle: suspension in saline): 136 % of control

Structure (SMILES): CC(C)NC(=O)N(CCCCBr)N=O
- survivor count (dose: 600.0 mg/kg/injection, schedule: Q04DX003 (sc), vehicle: Klucel (hydroxypropylcellulose) (HPC)): 2 of 4 on day 11

Structure (SMILES): CCC(=O)Sc1ccccc1C(=O)Nc1ccc(Cl)cc1
- T/C (dose: 1200.0 mg/kg/injection, schedule: Q04DX003 (sc), vehicle: saline with Tween-80): 146 % of control

Structure (SMILES): NC(=S)c1cn(C2OC(CO)C(O)C2O)c2ncnc(N)c12 (stereo not given)
- survivor count (dose: 25.0 mg/kg/injection, schedule: Q04DX003 (sc), vehicle: suspension in saline): 3 of 6 on day 11
- survivor count (dose: 50.0 mg/kg/injection, schedule: Q04DX003 (sc), vehicle: suspension in saline): 0 of 6 on day 11

Structure (SMILES): NC(=O)c1ncn2c(=O)n(CCCl)nnc12
- survivor count (dose: 100.0 mg/kg/injection, schedule: Q04DX003 (sc), vehicle: saline): 0 of 6 on day 11
- survivor count (dose: 100.0 mg/kg/injection, schedule: Q04DX003 (sc), vehicle: suspension in saline): 2 of 6 on day 11

Structure (SMILES): CN(CCN(C)C(=O)CCOS(C)(=O)=O)C(=O)CCOS(C)(=O)=O
- survivor count [6]: 2 of 6 on day 11
- survivor count (dose: 1200.0 mg/kg/injection, schedule: Q04DX003 (sc), vehicle: saline): 0 of 6 on day 11

Structure (SMILES): C[n+]1cccc(NC(=O)c2ccc(NC(=O)C34CCC(C(=O)Nc5ccc(C(=O)Nc6ccc[n+](C)c6)cc5)(CC3)CC4)cc2)c1
- survivor count [7]: 3 of 6 on day 11

Structure (SMILES): CCCCCCCC(=O)[O][Hg][CH2]C1COC([CH2][Hg][O]C(=O)CCCCCCC)CO1 (stereo not given)
- T/C (dose: 12.5 mg/kg/injection, schedule: Q01DX010 (sc), vehicle: saline with Tween-80): 130 % of control

Structure (SMILES): CCCCCCCCC(C)C(=O)N1CCCC1C(=O)N1C(CC(=O)CC)CC(C)CC1C(=O)NC(C)C(=O)NC(C)(C)C(=O)NC(C)(C)C(=O)NC(C(=O)NC(C)C(=O)NC(C)(C)C(=O)NC(C)(C)C(=O)NC(C)CN(C)CCO)C(C)CC (stereo not given) (X1-P[X2]A[Aib][Aib]IA[Aib][Aib]-X3; configuration not given here)
- T/C (dose: 1.25 mg/kg/injection, schedule: Q04DX003 (sc), vehicle: Klucel (hydroxypropylcellulose) (HPC)): 126 % of control
- T/C (dose: 2.5 mg/kg/injection, schedule: Q04DX003 (sc), vehicle: Klucel (hydroxypropylcellulose) (HPC)): 126 % of control
- survivor count (dose: 10.0 mg/kg/injection, schedule: Q04DX003 (sc), vehicle: Klucel (hydroxypropylcellulose) (HPC)): 3 of 6 on day 11

Structure (SMILES): O=C(/C=C(\Cl)C(=O)NO)NO
- T/C (dose: 200.0 mg/kg/injection, schedule: Q04DX003 (sc), vehicle: saline): 129 % of control
- survivor count (dose: 400.0 mg/kg/injection, schedule: Q04DX003 (sc), vehicle: saline): 0 of 6 on day 11
- survivor count (dose: 800.0 mg/kg/injection, schedule: Q04DX003 (sc), vehicle: saline): 0 of 6 on day 11

Structure (SMILES): C1CC[N-]CC1.C1CC[N-]CC1.C1CC[N-]CC1.[Cl][Rh]([Cl])[Cl]
- T/C (dose: 300.0 mg/kg/injection, schedule: Q04DX003 (sc), vehicle: saline): 129 % of control
- survivor count [6]: 3 of 6 on day 11

Structure (SMILES): Cc1cc2c(C(C)C)c(O)c(O)c(C=O)c2c(O)c1-c1c(C)cc2c(C(C)C)c(O)c(O)c(C=O)c2c1O
- survivor count (dose: 150.0 mg/kg/injection, schedule: Q04DX003 (sc), vehicle: saline with Tween-80): 3 of 6 on day 11
- survivor count (dose: 300.0 mg/kg/injection, schedule: Q04DX003 (sc), vehicle: saline with Tween-80): 2 of 6 on day 11

Structure (SMILES): CC(C)[NH-].CC(C)[NH-].[Cl][Pt+2][Cl]
- survivor count (dose: 200.0 mg/kg/injection, schedule: Q01DX010 (sc), vehicle: dextrose): 0 of 3 on day 11

Structure (SMILES): c1cnc2ncncc2n1
- T/C (dose: 50.0 mg/kg/injection, schedule: Q04DX003 (sc), vehicle: saline with Tween-80): 128 % of control
- survivor count [7]: 3 of 5 on day 11
- survivor count (dose: 200.0 mg/kg/injection, schedule: Q04DX003 (sc), vehicle: saline with Tween-80): 1 of 6 on day 11 and 3 of 6 on day 11
- survivor count (dose: 400.0 mg/kg/injection, schedule: Q04DX003 (sc), vehicle: saline with Tween-80): 0 of 6 on day 11 and 1 of 6 on day 11

Structure (SMILES): N=C1CCCS1
- survivor count (dose: 150.0 mg/kg/injection, schedule: Q04DX003 (sc), vehicle: saline): 3 of 6 on day 11

Structure (SMILES): O=C(NO)c1ccc(O)c(O)c1
- survivor count (dose: 1600.0 mg/kg/injection, schedule: Q04DX003 (sc), vehicle: distilled water + Tween-80): 0 of 6 on day 11

Structure (SMILES): ClC1=C(Cl)C(Cl)=C(Cl)C1=Cc1ccccc1
- T/C [7]: 139 % of control

Structure (SMILES): CN1CCN(Cc2nc3cccc4c3c([n+]2[O-])-c2ccccc2-4)CC1
- survivor count [1]: 1 of 3 on day 11
- survivor count [3]: 1 of 3 on day 11
- survivor count [8]: 0 of 2 on day 11

Structure (SMILES): C1OC1CO[C@@H]1CO[C@H]2[C@@H]1OC[C@H]2OCC1CO1 (stereo not given in full)
- survivor count [8]: 1 of 2 on day 11
